Our source for the binding values is PMC10861483.

Sequences of proteins named here, by UniProt entry; tags and fusion partners are left off. A change or cut given only in a name is not applied to a line headed by its entry.
UniProt P00367: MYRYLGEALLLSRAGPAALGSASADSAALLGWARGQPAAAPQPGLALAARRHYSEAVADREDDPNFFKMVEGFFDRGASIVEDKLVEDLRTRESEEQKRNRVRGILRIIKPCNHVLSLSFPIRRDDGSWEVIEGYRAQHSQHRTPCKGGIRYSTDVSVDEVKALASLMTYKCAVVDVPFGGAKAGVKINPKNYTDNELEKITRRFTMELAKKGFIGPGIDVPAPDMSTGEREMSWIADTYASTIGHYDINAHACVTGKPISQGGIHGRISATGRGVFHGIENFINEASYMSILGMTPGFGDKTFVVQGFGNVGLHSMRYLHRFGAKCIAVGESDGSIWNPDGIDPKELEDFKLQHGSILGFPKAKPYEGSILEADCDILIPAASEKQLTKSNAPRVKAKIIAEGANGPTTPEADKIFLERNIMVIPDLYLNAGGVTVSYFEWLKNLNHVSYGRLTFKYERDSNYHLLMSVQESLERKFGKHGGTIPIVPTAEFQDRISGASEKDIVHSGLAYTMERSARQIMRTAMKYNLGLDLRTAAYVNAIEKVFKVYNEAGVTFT

These are yes or no findings as the source states them, for the method shown. Binding seen in cells or lysates may run through a third protein. A result given as binding can be weak or reduced; the word gives no strength. Tags and fused reporters may be left off the sequences shown.

The target of experiment [1] is T1, Flag-tagged CPS1 (human) (UniProt P31327).
T1 sequence: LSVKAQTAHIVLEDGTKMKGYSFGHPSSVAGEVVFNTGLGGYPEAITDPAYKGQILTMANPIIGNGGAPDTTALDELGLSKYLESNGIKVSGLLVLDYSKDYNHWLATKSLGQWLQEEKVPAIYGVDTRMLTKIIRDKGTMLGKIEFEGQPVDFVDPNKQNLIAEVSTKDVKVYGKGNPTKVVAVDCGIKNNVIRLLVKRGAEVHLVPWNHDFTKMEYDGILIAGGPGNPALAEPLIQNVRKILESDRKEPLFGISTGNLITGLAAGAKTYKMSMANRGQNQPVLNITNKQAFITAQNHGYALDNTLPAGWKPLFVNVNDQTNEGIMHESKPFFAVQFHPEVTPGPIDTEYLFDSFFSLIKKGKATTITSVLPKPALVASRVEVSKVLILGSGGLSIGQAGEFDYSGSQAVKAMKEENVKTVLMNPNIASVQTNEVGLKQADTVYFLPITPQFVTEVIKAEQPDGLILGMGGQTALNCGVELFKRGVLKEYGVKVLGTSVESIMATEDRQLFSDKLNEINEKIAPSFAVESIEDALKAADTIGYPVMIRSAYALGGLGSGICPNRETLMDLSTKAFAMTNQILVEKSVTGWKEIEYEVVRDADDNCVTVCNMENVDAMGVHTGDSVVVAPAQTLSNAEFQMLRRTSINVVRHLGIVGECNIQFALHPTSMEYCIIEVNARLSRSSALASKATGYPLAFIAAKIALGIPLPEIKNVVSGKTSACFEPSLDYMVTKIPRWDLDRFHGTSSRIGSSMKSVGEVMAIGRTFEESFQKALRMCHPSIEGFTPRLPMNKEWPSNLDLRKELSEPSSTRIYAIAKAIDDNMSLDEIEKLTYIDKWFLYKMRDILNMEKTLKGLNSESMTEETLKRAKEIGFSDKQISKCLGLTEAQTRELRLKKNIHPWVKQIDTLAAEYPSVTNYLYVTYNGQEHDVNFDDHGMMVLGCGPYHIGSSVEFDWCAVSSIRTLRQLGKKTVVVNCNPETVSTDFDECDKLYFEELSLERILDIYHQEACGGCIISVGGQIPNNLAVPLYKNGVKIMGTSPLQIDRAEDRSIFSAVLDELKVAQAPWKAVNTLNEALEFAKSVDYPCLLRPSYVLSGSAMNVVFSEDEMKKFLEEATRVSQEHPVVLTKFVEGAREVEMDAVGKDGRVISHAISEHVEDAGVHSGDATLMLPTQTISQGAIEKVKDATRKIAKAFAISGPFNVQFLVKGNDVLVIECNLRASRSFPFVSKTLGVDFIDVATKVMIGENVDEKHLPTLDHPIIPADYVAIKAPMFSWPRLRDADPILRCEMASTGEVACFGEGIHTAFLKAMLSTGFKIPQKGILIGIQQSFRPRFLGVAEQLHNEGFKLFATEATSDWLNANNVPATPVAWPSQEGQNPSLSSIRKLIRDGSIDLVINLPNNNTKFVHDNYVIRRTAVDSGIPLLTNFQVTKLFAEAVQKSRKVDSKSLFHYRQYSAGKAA
Briefly: co-IP; Flag-tagged CPS1 or GDH co-expressed in HEK293T cells with HA-tagged GDH or CPS1; Flag bead- or HA bead-purified proteins analysed by western blotting. For orientation: A western blot detects proteins with antibodies after separation by electrophoresis.

For experiment [2], the target named is Flag-tagged GDH (human) (UniProt P00367). The description is as above.
Experiment [3] addresses GDH co-expressed with SIRT4 (tag not told) (human) (UniProt P00367). The experiment in a line: co-IP; GDH and SIRT4 simultaneously expressed in HEK293T cells; co-immunoprecipitation.

For “HA-tagged GDH (from UniProt P00367) (enzyme)”, in experiment [1], the binding entry is given as “binds”.

B1: HA-tagged CPS1 (enzyme, UniProt P31327 39-1500)
chain: LSVKAQTAHIVLEDGTKMKGYSFGHPSSVAGEVVFNTGLGGYPEAITDPAYKGQILTMANPIIGNGGAPDTTALDELGLSKYLESNGIKVSGLLVLDYSKDYNHWLATKSLGQWLQEEKVPAIYGVDTRMLTKIIRDKGTMLGKIEFEGQPVDFVDPNKQNLIAEVSTKDVKVYGKGNPTKVVAVDCGIKNNVIRLLVKRGAEVHLVPWNHDFTKMEYDGILIAGGPGNPALAEPLIQNVRKILESDRKEPLFGISTGNLITGLAAGAKTYKMSMANRGQNQPVLNITNKQAFITAQNHGYALDNTLPAGWKPLFVNVNDQTNEGIMHESKPFFAVQFHPEVTPGPIDTEYLFDSFFSLIKKGKATTITSVLPKPALVASRVEVSKVLILGSGGLSIGQAGEFDYSGSQAVKAMKEENVKTVLMNPNIASVQTNEVGLKQADTVYFLPITPQFVTEVIKAEQPDGLILGMGGQTALNCGVELFKRGVLKEYGVKVLGTSVESIMATEDRQLFSDKLNEINEKIAPSFAVESIEDALKAADTIGYPVMIRSAYALGGLGSGICPNRETLMDLSTKAFAMTNQILVEKSVTGWKEIEYEVVRDADDNCVTVCNMENVDAMGVHTGDSVVVAPAQTLSNAEFQMLRRTSINVVRHLGIVGECNIQFALHPTSMEYCIIEVNARLSRSSALASKATGYPLAFIAAKIALGIPLPEIKNVVSGKTSACFEPSLDYMVTKIPRWDLDRFHGTSSRIGSSMKSVGEVMAIGRTFEESFQKALRMCHPSIEGFTPRLPMNKEWPSNLDLRKELSEPSSTRIYAIAKAIDDNMSLDEIEKLTYIDKWFLYKMRDILNMEKTLKGLNSESMTEETLKRAKEIGFSDKQISKCLGLTEAQTRELRLKKNIHPWVKQIDTLAAEYPSVTNYLYVTYNGQEHDVNFDDHGMMVLGCGPYHIGSSVEFDWCAVSSIRTLRQLGKKTVVVNCNPETVSTDFDECDKLYFEELSLERILDIYHQEACGGCIISVGGQIPNNLAVPLYKNGVKIMGTSPLQIDRAEDRSIFSAVLDELKVAQAPWKAVNTLNEALEFAKSVDYPCLLRPSYVLSGSAMNVVFSEDEMKKFLEEATRVSQEHPVVLTKFVEGAREVEMDAVGKDGRVISHAISEHVEDAGVHSGDATLMLPTQTISQGAIEKVKDATRKIAKAFAISGPFNVQFLVKGNDVLVIECNLRASRSFPFVSKTLGVDFIDVATKVMIGENVDEKHLPTLDHPIIPADYVAIKAPMFSWPRLRDADPILRCEMASTGEVACFGEGIHTAFLKAMLSTGFKIPQKGILIGIQQSFRPRFLGVAEQLHNEGFKLFATEATSDWLNANNVPATPVAWPSQEGQNPSLSSIRKLIRDGSIDLVINLPNNNTKFVHDNYVIRRTAVDSGIPLLTNFQVTKLFAEAVQKSRKVDSKSLFHYRQYSAGKAA
Regarding B1, the binding result in experiment [2] is given as “binds”.

B2: SIRT4 co-expressed with GDH (tag not told) (enzyme, UniProt Q9Y6E7 29-314)
chain: IGLFVPASPPLDPEKVKELQRFITLSKRLLVMTGAGISTESGIPDYRSEKVGLYARTDRRPIQHGDFVRSAPIRQRYWARNFVGWPQFSSHQPNPAHWALSTWEKLGKLYWLVTQNVDALHTKAGSRRLTELHGCMDRVLCLDCGEQTPRGVLQERFQVLNPTWSAEAHGLAPDGDVFLSEEQVRSFQVPTCVQCGGHLKPDVVFFGDTVNPDKVDFVHKRVKEADSLLVVGSSLQVYSGYRFILTAWEKKLPIAILNIGPTRSDDLACLKLNSRCGELLPLIDPC
For B2, the binding result in experiment [3] is recorded as “binds”.
